{"source": "patent US11571446B2", "about": "“Gut microbiota and treatment of cancer” (Sanford Burnham Prebys Medical Discovery Institute, priority 2016, dated 2023)", "system": "gut microbiota", "assay": "Gut microbiota composition after mucin, inulin or anti-CTLA-4 treatment", "type": "in vivo, mouse", "key": {"[1]": {"settings": "mucin and inulin fed WT and Rnf5 mice"}}}
{"substance": "inulin", "values": [{"measurement": "Lactobacillus spp., Ruminococaceae and Lachnospiriaceae in gut microbiota", "setting": "fed mice", "result": "suppressed large portions"}, {"measurement": "abundance of Bacteroides spp., P. goldsteinii, P. merdae, P. canis, P. koreensis, unclassified Pedobacter and O. sinus", "setting": "[1]", "result": "enrichment"}, {"measurement": "abundance of S. hydroxybenzoicus, Blautia spp. and J. ignava", "setting": "[1]", "result": "reduced abundance"}]}
